Test results taken from PubChem BioAssay AID624297 (National Center for Advancing Translational Sciences (NCATS), 2012).
In all, about 340,000 compounds went through this assay and about 6,200 (1.8%) were called active. Inconclusive means that the source gave no clear call. Such entries were picked first, then a sample of the others. Calls follow the shape of the dose curve; as a rule, active = well fitted activation curve with a large enough effect; inconclusive = small, poorly fitted or top-dose-only effect; inactive = no such curve, though single readings can be large or run the other way. A potency beside an inconclusive call is a rough fit, not a confirmed value.

test: A quantitative high throughput screen for small molecules that induce DNA re-replication in SW480 colon adenocarcinoma cells.; also: nearly all actives have a fitted effect of over 55% in size; as to re-replication activation: % of control where 0% means no effect; conditions: Hoechst DNA content imaging, 48 h; re-replication activation: at 46.1 µM (top of the series)
How it was run: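 Readout is total intensity of Hoechst-stained nuclei, excited at 405 nm and collected at 500-530 nm. Compound treatment lasted 48 hr at 37 C in 5% CO2 before staining.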
Potency is read from the fitted curve at half-maximal effect.

Structure (SMILES)	Potency	re-replication activation
CN(C)CCNc1ccc(CO)c2oc3ccc(O)cc3c(=O)c12	inconclusive: 14.6 µM [activator, partial curve, poor fit]	–
COc1ccc(/C=N/n2c(C)nc3sc(C)c(C)c3c2=O)cc1	inconclusive: 5.17 µM [activator, single point]	–
COc1ccccc1NS(=O)(=O)c1ccc(C)c(C(=O)Nc2cc(C)on2)c1	inactive	–
Clc1ccc(N2N=C(c3cccs3)CC2c2ccco2)cc1 (centres undefined)	inconclusive: 1.84 µM [activator, full curve]	–
Cc1cccc(C)c1Nc1nnc(SC/C(O)=C(\C#N)c2nc3ccccc3[nH]2)s1	inconclusive: 29.1 µM [activator, single point]	–
CS(=O)(=O)N1CCC(Oc2cccc(C(=O)NCCCC3CCCC3)c2)CC1	inactive	–
O=C(c1ccco1)c1cn(CC(=O)N2CCCC2)c2ccccc12	inconclusive: 32.6 µM [activator, partial curve, poor fit]	–
COC(=O)c1ccc2c(=O)[nH]c(COC(=O)c3[nH]c(C)c(C(C)=O)c3C)nc2c1	inconclusive: 16.4 µM [activator, partial curve, poor fit]	–
Cc1cccc(C)c1NC(=O)CN(C)C(=O)[C@H](C)NC(=O)c1ccco1	inactive	–
COc1ccc(C2c3ccc4ccccc4c3Oc3ncn(CCO)c(=N)c32)cc1OC (centres undefined)	inconclusive: 16.4 µM [activator, partial curve, poor fit]	–
COc1ccc(-c2cc(C(F)(F)F)n3nc(C(=O)N4CCCC4)cc3n2)cc1	inactive	–
Cc1cccc(C)c1NC(=O)CN(C)C(=O)C1CC(=O)N(c2cccc3ccccc23)C1 (centres undefined)	inactive	–
CCOC(=O)c1sc(NC(=O)CC(C)c2ccccc2)nc1C (centres undefined)	inconclusive: 23.1 µM [activator, single point]	–
CCCCCC(=O)Nc1nnc(CCc2ccccc2)s1	inactive	–
Cc1ccc(CNC(=O)C2CC(c3cccc([N+](=O)[O-])c3)=NO2)cc1 (centres undefined)	inconclusive: 0.13 µM [activator, partial curve, poor fit]	–
Cc1ccc2sc(-c3ccc(NC(=O)c4cc(-n5cnnc5)ccc4Cl)cc3)nc2c1	active: 14.6 µM	–
COc1ccc(NC(=O)c2cccnc2SC)cc1S(=O)(=O)N1CCCCC1	inconclusive: 0.731 µM [activator, partial curve, poor fit]	–
CCCCCc1ccc(-c2cn(Cc3cccc(OC)c3)nn2)cc1	inconclusive: 0.0103 µM [activator, full curve, poor fit]	–
CC[C@H](C)[C@@H](C(=O)NCCCCCCCCCCC(=O)N1CCNCC1)n1cc(CCCCCN)nn1	inconclusive: 0.58 µM [activator, full curve, poor fit]	–
CCOC(=O)c1cc(C)n(Cc2ccccc2)c1C	inconclusive: 6.51 µM [activator, single point]	–
O=C(CNS(=O)(=O)c1ccc(F)c(Cl)c1)N1CCCC1	inconclusive: 20.6 µM [activator, single point]	–
CCOC(=O)c1c(C)nc2sc3c(c2c1-c1ccc(OC)cc1)NC(c1ccccc1)NC3=O (centres undefined)	inactive	–
COc1ccc(-c2c(C)nc(N)nc2-c2ccc(OC)cc2O)cc1	inconclusive: 18.4 µM [activator, partial curve, poor fit]	–

Arranged by length of the SMILES (largest number first): 3 of the compounds above.
Structure (SMILES)	Potency	re-replication activation
COC(=O)c1ccc2c(=O)[nH]c(COC(=O)c3[nH]c(C)c(C(C)=O)c3C)nc2c1	inconclusive: 16.4 µM [activator, partial curve, poor fit]	–
Cc1cccc(C)c1NC(=O)CN(C)C(=O)C1CC(=O)N(c2cccc3ccccc23)C1 (centres undefined)	inactive	–
CCOC(=O)c1cc(C)n(Cc2ccccc2)c1C	inconclusive: 6.51 µM [activator, single point]	–

(next part)

Structure (SMILES)	Potency	re-replication activation
COc1cccc(NC(=O)CSc2nnnn2C2CCCC2)c1	inconclusive: 1.46 µM [activator, partial curve, poor fit]	–
Cc1ccc(C(=O)N(CC(=O)Nc2sc(C)c(C)c2C(N)=O)C2CCCC2)cc1	inactive	–
Cn1cc(S(=O)(=O)N2CCOCC2)cc1C(=O)Nc1ccc(Cl)cc1	–	inconclusive: 91.5% [activator]
Cc1cc(Cl)ccc1NC(=S)NCc1ccccc1Cl	inactive	–
CCN(CC)CCCNC(=O)c1sc2nc(-c3ccc(F)cc3)cn2c1C	inconclusive: 29.1 µM [activator, single point]	–
CC(=O)Nc1cc2c(cc1NC(=O)Cn1nc(-c3ccccc3)ccc1=O)OCCO2	inactive	–
COC(=O)c1ccc(CSc2ccc3nnc(-c4ccc(F)cc4)n3n2)o1	inactive	–
OC(COc1ccc(OCC(O)CN2CCN(Cc3ccccc3)CC2)cc1)CN1CCN(Cc2ccccc2)CC1 (centres undefined)	inconclusive: 29.1 µM [activator, partial curve, poor fit]	–
CC(=O)c1c(C)[nH]c2ccccc2c1=O	inactive	–
CC(C)(C)c1ccc(-c2nc3c(C#N)c(-c4ccc5c(c4)OCO5)ccn3n2)cc1	inconclusive: 3.26 µM [activator, single point]	–
COC(=O)c1sc(S(=O)(=O)N2CCN(c3ccccc3F)CC2)c(C(=O)OC)c1C	inactive	–
COC(=O)Cc1cc(=O)[nH]c(/N=C(\N)Nc2cccc(C)c2)n1	inactive	–
CCCS(=O)(=O)N1CCN=C1SCc1cccnc1	inconclusive: 20.6 µM [activator, single point]	–
O=C(NCCCN1CCOCC1)c1ccc(/C=C2\Oc3ccccc3N(Cc3ccccc3F)C2=O)cc1	inconclusive: 6.51 µM [activator, single point]	–
Cc1cc(C)nc(N/N=C/c2ccccc2OCc2ccccc2)n1	inconclusive: 18.4 µM [activator, partial curve, poor fit]	–
CCc1ccc(/C=C(\C#N)C(=O)NC2CCS(=O)(=O)C2)cc1 (centres undefined)	inconclusive: 16.4 µM [activator, single point]	–
O=C(NC1CCCc2ccccc21)c1cc(S(=O)(=O)N2CCOCC2)ccc1F (centres undefined)	inconclusive: 9.2 µM [activator, partial curve, poor fit]	–
Cc1ccc(SCC(=O)N(C)C2CCS(=O)(=O)C2)c(C)c1 (centres undefined)	inconclusive: 23.1 µM [activator, single point]	–
Cn1cccc1C(=O)OCc1ccc(C(C)(C)C)cc1	inconclusive: 2.91 µM [activator, full curve, poor fit]	–
CCOCCCn1c(=N)c(C(=O)NCc2ccc3c(c2)OCO3)cc2c(=O)n3cccc(C)c3nc21	inconclusive: 20.6 µM [activator, single point]	–
Cn1nc(C(C)(C)C)cc1NC(=O)Nc1cc(Cl)cc(Cl)c1	inconclusive: 0.291 µM [activator, full curve, poor fit]	–
Cc1cccc(OCC(=O)NCC(=O)N/N=C/c2cc(Br)ccc2OCc2ccccc2)c1	inconclusive: 23.1 µM [activator, partial curve, poor fit]	–
CC(=O)Nc1ccc(Nc2nc(-c3c(C)nc4ccccn34)cs2)cc1	inconclusive: 0.517 µM [activator, full curve, poor fit]	–

Structure (SMILES)	Potency	re-replication activation
COc1ccccc1Nc1nnc(SCC(=O)Nc2nc(-c3ccc(F)cc3)cs2)s1	inconclusive: 29.1 µM [activator, single point]	–
CCOC(=O)C1(CC2CCCCO2)CCN(S(=O)(=O)c2ccc(OC)cc2)CC1 (centres undefined)	inconclusive: 6.51 µM [activator, single point]	–
CC(C)CCn1c(=O)c2ccccc2n2c(CCl)nnc12	inconclusive: 29.1 µM [activator, single point]	–
CCc1ccccc1NC(=O)c1sc2nc(C)cc(C)c2c1N	inconclusive: 16.4 µM [activator, single point]	–
NS(=O)(=O)c1ccc(CCNC(=O)CN2CCCCC2)cc1	inconclusive: 0.231 µM [activator, single point]	–
O=S(=O)(Nc1ccc(C(F)(F)F)cc1)c1cnc[nH]1	inconclusive: 1.16 µM [activator, full curve, poor fit]	–
C/C(=N\Nc1ccccc1)c1c(O)cc(C)oc1=O	inactive	–
ClCc1nc2ccccc2c2ccccc12	active: 18.4 µM	–
CCOC(=O)c1c(N/N=C/c2ccncc2)n[nH]c1C	inconclusive: 4.61 µM [activator, partial curve, poor fit]	–
COc1ccc(/C=C2\Sc3ccc(C(=O)N4CCN(Cc5ccccc5)CC4)cc3N(C)C2=O)cc1OC	inconclusive: 25.9 µM [activator, partial curve, poor fit]	–
CCC1SC2=NCCN2C1(O)c1ccc(Cl)cc1 (centres undefined)	inconclusive: 29.1 µM [activator, single point]	–
COc1ccc(C2Sc3nncn3N2Cc2ccc(C#N)cc2)cc1 (centres undefined)	inconclusive: 6.51 µM [activator, single point]	–
COc1ccc(-c2csc3ncnc(NCCN4CCOCC4)c23)cc1	inconclusive: 18.4 µM [activator, single point]	–
C=CCS/C(N)=N\N=C\c1cc(Br)cc([N+](=O)[O-])c1O	inactive	–
N/C(=N\OC(=O)c1ccc2ccccc2c1)c1ccncc1	inconclusive: 18.4 µM [activator, single point]	–
O=C(NCCOc1ccccc1)c1cc([N+](=O)[O-])ccc1N1CCOCC1	active: 2.91 µM	–
CCOC(=O)C1CCCN(C(=O)C2CC(=O)N(c3ccc(C)cc3)C2)C1 (centres undefined)	inconclusive: 29.1 µM [activator, single point]	–
O=C(N/N=C/C1CC2CCC1C2)c1ccc2c(c1)OCO2 (centres undefined)	inactive	–
COc1cc(CNc2cccc3[nH]c(C(F)(F)F)nc23)cc(OC)c1	inactive	–
O=c1cc(-c2ccccc2)nc(Cc2c(Cl)cccc2Cl)[nH]1	inactive	–
CC1(C)Cc2ccccc2C2=NNC(=O)C2=N1	active: 8.2 µM	–
CCN(CC)c1ccc(/C=N/N2C(=O)c3ccccc3C2=O)c(O)c1	inactive	–
COc1ccccc1CNC(=O)COc1ccc([N+](=O)[O-])cc1	inactive	–
